Assay results reported in paper PMC3418201.
No constants are given. Whether binding was seen depends on the method and setting. Where a sequence is shown, tags or fusion partners need not be part of it.

Target: T1, GFP-CTCF (mouse CTCF, from pEGFP-mCTCF) (mouse) (UniProt Q61164)
T1 sequence: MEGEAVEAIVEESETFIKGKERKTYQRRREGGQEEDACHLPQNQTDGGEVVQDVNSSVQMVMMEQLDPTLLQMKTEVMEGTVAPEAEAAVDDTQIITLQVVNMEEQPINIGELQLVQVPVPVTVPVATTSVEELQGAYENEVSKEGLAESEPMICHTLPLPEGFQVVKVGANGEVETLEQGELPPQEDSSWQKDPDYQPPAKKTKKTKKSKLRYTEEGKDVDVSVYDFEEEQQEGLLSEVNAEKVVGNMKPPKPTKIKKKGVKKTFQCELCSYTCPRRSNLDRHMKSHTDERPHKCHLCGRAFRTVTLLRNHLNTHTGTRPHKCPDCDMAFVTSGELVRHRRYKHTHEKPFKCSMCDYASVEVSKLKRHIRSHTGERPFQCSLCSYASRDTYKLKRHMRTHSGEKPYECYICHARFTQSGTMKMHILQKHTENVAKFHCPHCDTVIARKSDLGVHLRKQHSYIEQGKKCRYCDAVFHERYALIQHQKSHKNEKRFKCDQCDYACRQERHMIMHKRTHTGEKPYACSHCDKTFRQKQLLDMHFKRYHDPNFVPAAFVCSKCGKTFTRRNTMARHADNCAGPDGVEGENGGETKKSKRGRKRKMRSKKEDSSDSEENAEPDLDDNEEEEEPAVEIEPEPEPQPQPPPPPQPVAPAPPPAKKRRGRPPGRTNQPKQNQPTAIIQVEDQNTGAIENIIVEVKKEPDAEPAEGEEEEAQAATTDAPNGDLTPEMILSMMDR
Experiment: condition: GFP-CTCFL at 1-, 2-, 5- and 10-fold compared to GFP-CTCF; native gel or EMSA; band shift with nuclear extracts on radiolabelled Prss50 and Stra8 probes, probe-limiting concentrations; 10 ug CTCF nuclear extract, GFP-CTCFL extract added in increasing amounts (1-, 2-, 5- and 10-fold); 25 °C, 20 mM HEPES pH 7.5, 50 mM KCl; 4% polyacrylamide gel

B1: GFP-CTCFL (mouse CTCF-like protein, from pEGFP-mCTCFL) (protein, UniProt A2APF3 1-636)
chain: MAAAEVPVPSGYFTQIKEQKLKPGDLEEEKEEDGVQRVEAQEGVVKEVEAENSCLLLEARAPVESDRRILTLQTVHLESQDVHLQGLGWLSVPHSEELSGTVPEAEGILQLPSVLWLDPEPQLSLQHCVTVSIPEELYPPEELQRIHFHLLRENVLMAEENPELTPDLDESTALKKPEEDEKDQLPPQGETDKREERLLLLEMKPKEGKDDEIVLTISHLSLEEQQDPPAANQTSVPGAKAAKPKRRRQTKGKPQSFQCDTCPFTSSKLSTFNRHIKIHSNERPHLCHLCLKAFRTVTLLRNHVNTHTGTRPHKCRDCDMAFVTSGELVRHRRYKHTYEKPFKCSLCKYASVEASKMKRHIRSHTGERPFQCCQCAYASRDSYKLKRHMRTHSGEKPYECPTCHVRFTQSGTMKIHIAQKHGENVPKYECPHCATIIARKSDLRVHLRNLHSQSPEEMKCRYCPAGFHERYALIQHQRTHKNEKKFKCKQCDYACKQERCLKAHMRMHTGEKPFSCLACNKHFRQKQLLTVHLRKYHDPNFVPNLHLCLKCDKRFSRWSNLQRHRKKCDPEHETLAPNKDRRPVTRTQASEGEAGHKEGEPQCPGEQALGHQGEAAGSQSPDHGLTCEIIFNMMDK
- binding: no binding
